Data: PMC12019842

Protein sequences, listed by entry. Tags and fused reporters are not part of them.
UniProt O54833: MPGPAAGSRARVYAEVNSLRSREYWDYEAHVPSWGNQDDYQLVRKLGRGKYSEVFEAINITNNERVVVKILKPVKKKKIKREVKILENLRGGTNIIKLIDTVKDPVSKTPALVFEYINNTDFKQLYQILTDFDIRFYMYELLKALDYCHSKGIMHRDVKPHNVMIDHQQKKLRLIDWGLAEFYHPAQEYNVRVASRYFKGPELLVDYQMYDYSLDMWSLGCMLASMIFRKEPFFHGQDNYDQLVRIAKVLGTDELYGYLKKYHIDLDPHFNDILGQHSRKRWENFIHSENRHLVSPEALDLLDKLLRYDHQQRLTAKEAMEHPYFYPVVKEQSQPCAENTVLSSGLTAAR
UniProt P50752: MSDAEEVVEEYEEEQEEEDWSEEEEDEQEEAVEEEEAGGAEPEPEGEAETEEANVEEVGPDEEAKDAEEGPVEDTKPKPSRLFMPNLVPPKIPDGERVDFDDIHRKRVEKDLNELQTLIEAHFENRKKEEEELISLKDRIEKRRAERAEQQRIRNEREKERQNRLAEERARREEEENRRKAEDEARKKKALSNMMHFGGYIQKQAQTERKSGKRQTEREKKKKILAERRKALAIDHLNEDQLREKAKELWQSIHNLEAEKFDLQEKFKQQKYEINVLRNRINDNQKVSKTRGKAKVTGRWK

How the values were obtained:
[1] = target: casein kinase II subunit alpha (Csnk2a2) (mouse (endogenous in mouse heart)) (UniProt O54833); test: affinity purification with mass spectrometry; Co-IP from frozen mouse heart homogenate (three mice) with anti-Troponin T-C (CT3) or anti-CSNK2A2 antibody, IgG as negative control; lysis buffer 10 mM Hepes, 10 mM potassium chloride, 0.1% Triton X-100, pH 7.4; antibody-antigen incubation 18 h at 4 °C; elute against unbound fraction and IgG elute by DIA-MS (FDR <0.05, log2FC > 1)
[2] = target: cardiac troponin T (Tnnt2) (mouse (endogenous in mouse heart)) (UniProt P50752); test: as above

Binder | binding [1] | binding [2]
H1-1 (protein, UniProt P43275 1-213) MSETAPVAQAASTATEKPAAAKKTKKPAKAAAPRKKPAGPSVSELIVQAVSSSKERSGVSLAALKKSLAAAGYDVEKNNSRIKLGLKSLVNKGTLVQTKGTGAAGSFKLNKKAESKAITTKVSVKAKASGAAKKPKKTAGAAAKKTVKTPKKPKKPAVSKKTSKSPKKPKVVKAKKVAKSPAKAKAVKPKASKAKVTKPKTPAKPKKAAPKKK | binds | 
Lmnb2 (protein, UniProt P21619 1-596) MASLPPHAGPATPLSPTRLSRLQEKEELRELNDRLAHYIDRVRALELENDRLLLRISEKEEVTTREVSGIKTLYESELADARRVLDETARERARLQIEIGKVQAELEEARKSAKKREGELTVAQGRVKDLESLFHRSEAELATALSDKQGLETEVAELRAQLAKAEDGHAVAKKQLEKETLMRVDLENRCQSLQEELAFSKSVFEEEVRETRRRHERRLVEVDSSRQQEYDFKMAQALEDLRSQHDEQVRLYRVELEQTYQAKLDNAKLLSDQNDKAAHAAREELKEARMRVESLSYQLLGLQKQASAAENHIHELEEALAGERDKFRKMLDAKEQEMTEVRDAMQQQLAEYQELLDIKLALDMEISAYRKLLEGEEERLKLSPSPSSRITISRATSSSSSSSGVGMSVGQGRGKRRRLETEDTSGSPSRASRVSSGSRLAQQTVATGVVNIDEVDPEGRFVRLKNSSDKDQSLGNWRIKRQVLEGEDIAYKFTPKYVLRAGQTVTVWAAGAGATHSPPSTLVWKSQTNWGPGESFRTALVSADGEEVAVKAAKHSSVQGRENGEEEEEEEAEFGEEDLFHQQGDPRTTSRGCRLM | binds | 
Ablim2 (protein, UniProt Q8BL65 1-612) MSAVSQPQAAHAPLEKPASTAILCNTCGNVCKGEVLRVQNKYFHIRCFVCKACGCDLAEGGFFVRQGEHICTRDYQRLYGTRCFSCDRFIEGEVVSALGKTYHPDCFVCAVCRLPFPPGDRVTFNGKECMCQKCSPPTLLGNSAHVAQGLRSCGGCGLEIKNGQALVALDKHWHLGCFKCKTCGKLLNAEYISKDGLPYCEADYHSKFGIRCDGCEKYITGRVLEAGEKHYHPSCALCVRCGQMFSEGEEMYLQGSSIWHPACRQAARTEDKSKETRTSSESIVSVPASSTSGSPSRVIYAKLGDEILDYRDLAALPKNKAIYNIDRPDMISYSPYISHSAVGDRQSYGEGDQDDRSYKQCRTSSPSSAGSVSLGHYTPTSRSPQHYSRPGSESGRSTPSLSVHSDSRPPSSTYQQAPRHFHVPDTGVKDNIYRKPPIYKQHAARRLDVEDSSFDQDSRKKTTWLLLKGDADTRTNSPDLDSQSLSLSSGTDQEPLQRMAGDSLYSRFPYSKPDTLPGPRKDGLDLRNANLAPCGADPDASWGTREYKIYPYDSLIVTNRIRVKLPKDVDRTRLERHLSPEEFQEVFGMSIEEFDRLALWKRNDLKKKALLF | binds | 

More lines, now with the values ahead:

binding [1] | binding [2] | Binder
binds |  | Synpo2 (protein, UniProt Q91YE8 1-1087) MGTGDFICISMTGGAPWGFRLQGGKEEQQPLQVAKIRSQSKASGSGLREGDEVVSINGNPCADLTYPEVIKLMEGITDSLHLLVKRPSSGTSETLDSESETTNHQHLTHEGPMESTTLQIQQATETQSEDFFLAPVQTKVPLTEDQSNAWGYAECPKEEQAPPMLGSQEGHLVEEVILRQKAEAGQPGHVVELQLSLSKERHQCTSGPIVTLQGNDKSTSPDPDWSSQLERTVHINSIPAPEKADTSLTSSTSSGRELRVIQGRDPGGAGLPQVEVILDCSDRLKAEECRLQTGRGCVASPVEGGRSEAPPSLVSFAVSSEGTEHGEDQRSGKDQSRPHKHRARHARLRRSESLSEKQVKEAKSKCKSIALLLTDAPNPNSKGVLMFKKRRRRARKYTLVSYGTGELEREEEEEEDQEAGDKDEISEVAFLGTSESEVDEELLSDVDDNTQVVNFDWDSGLVDIEKRLNRGDKMEMLPDTTGKGALMFAKRRERMEQFTAQNEEEKTGGMAGGGPDALQTDGLRTMTSYQRKEESVRMQSSVSESSFQMGRSLASVPQQNGFSGVSETAGAQRMFPMNRTAKPFLGSMNQPAAPFSPTRSVTSPISDFPAPPPYSAVSPPPEAFSRGVSSPVAGPAQPPPWPQPAPWSQPAFYDSSEQIASRDERIAVPAKRTGILQEAKRRGTTKPMFTFKETKVSPNPELLSLLQNAEGKRGTGGDSGPEEDYLSLGAEACNFMQSSAKQKTPPPVAPKPAVKSPSSSQPVAPVSPVWSPGVAPAQRPAFSTSNPPNPPQVTAVSSIKIAQPAAPPARPASALNLAGPFKGPQAVVVSHNYTPKPSAPTPLVNAAPAGAGGPSNELPGMSGKGAQLFAKRQSRMEKYVVDSDTVQAHTVRAQSPTPSLPASWKYSSNVRAPPPVAYNPIHSPSYPLAAIKSQPPGAQASKTSKKKGKKPLNTLDVMKHQPYQLNASLFTFQPPDSKDGLPQKSTVKVSSAPAMKQALPPRQANVGSPTNAQASSVYSVPAYTSQPNFFAAEATSPVSASPVPVSVPTSPKQESTSTSYFVAPRPKFSAKKSGVTVQVWKPSVVEE
 | binds | Myom2 (protein, UniProt Q14BI5 1-1463) MSLVAVPFYQKRHKHFDQSYRNIQTRYLLDQYALKKQATTQSSSQRSLTERSSSKRASSQSSAGAMTCRLCAKRVSASEEEEVENENRYRSQAASYGEAKRQRFLSELAQLEENVHLARSQARDKLDKYFMEQTVEDNLAWERHSFEDRMSRAPEILVRLRSHTIWERMSVRLCFTVQGFPTPVVQWYKDGSLICQAGEPGKYRIESRYGVHTLEINRANFEDTATYSAVATNSHGQVSTNAAVVVRRYRGEEEPFHSVGLPIGLPLSSVIPYTHFDVQFLEKFGVTFRREGETVTLKCTLLVTPDLKRVQPRAEWYRDDVLLKESKWTKMFFGEGQASLSFSHLNKDDEGLYTLRIVSRGGVSDHSAFMFVRDADPLVTGAPGAPMDLQCHDANRDYVIVTWKPPNTTTESPVIGYFIDKCEVGTNNWVQCNDAPVKICKYPVTGLFEGRSYVFRVRAVNNAGISRPSRISDAVAALDPVDLRRLQAIHLEGEKEIVIYQDDLEGDVQIPGPPTNVQASEVSRNYVVLSWDPPSPRGKDPLMYFIEKSAVGSGSWQRVNAQTAVRSPRYAVFDLAEGKSYVFRVLSANKHGLSDPSEITPPIQAQDMIVVPSAPGRVLASRNTKTSVVVQWDRPKHEEDLLGYYVDCCVAGTNMWEPCNHKPIGYNRFVVHGLTTGEQYIFRVKAVNAVGTSENSQESEVIKVQAALTVPSHPYGITLLNCDGHSMTLGWKVPKFSGGSAIIGYYLDKREVHHKNWHEVNSSPVKERILTVEGLTEGSLYEFKIAATNLAGIGQPSDPSEHFKCEAWTDPEPGPAYDLTFCEVRDTSLVILWKAPVYSGSSPVSGYFVDFKEEDSGEWKTTSEAATPNRYLKVCDLQQGKTYVFRIRAVNASGPGKPSDTSEPVLVEARPGTKEISAGVDEEGNIYLGFDCQEMTDASQFTWCKAYEEIADEERFEVHTEGDHSKLYFKNPDKEDLGTYSVSVSDTDGVSSSFVLDEEELERLMALSNEIKNPTIPLKSELAYEIFDKGQVRFWLQAEHLSPDASFRFIINDREVSDSDTHRIKCDRSTGMIEMVMDRFTIENEGTYTVQIQDGKAKNQSSLVLIGDAFKAVLEEAEFQRKEFLRKQGPHFAEYLHWDVTEECEVRLVCKVANTKRETVFKWLKDDVLYETETPPDLEKGVCELLIPKLSKKDHGEYKATLKDDRGQDVSVLEVGGKVYEDMILAMSRVCGASASPLKVLCTPEGIRLQCFMKYFTEEMKVSWYHKEAKISSSEHMRIGGSEEMAWLQICEPTEKDKGKYTFEIFDGKDSHQRSLDLSGQAFDEAYAEFQQLKAAAFAEKNRGKVIGGLPDVVTIMEGKTLNLTCTVFGNPDPEVVWFKNDKDIELSEHFLVKMEQSKYVSLTIQGVTAEDSGKYSINVKNKYGGEKIDVTVSVYKHGEKIPDISPPQQAKPKLIPASTSSD

These are yes or no findings as the source states them, for the method shown. In cells and extracts the contact can be indirect. These calls come from enrichment with a bait or labelling near it, and not all partners need be listed.
